Data taken from patent US20100233714.
For at least one entry, the source does not settle the construct or the ends of the probe. For some assays here: No signal at the amounts used counts as a negative. For some assays here: Weaker means in comparison with the reference protein, sequence or condition of that experiment.

Columns and labels:
[1] = test system: IgG Fc fragment (human) (Homo sapiens); experiment: filter binding; details: printed negl, pH 6, 41 mM Na+, purified native protein
[2] = test system: IgG Fab'2 fragment (Example 2); experiment: pull-down; details: immobilized on Sepharose, 100 mM TEAA, 20 mM Mg2+, pH 7, purified native protein
[3] = test system: IgG, polyclonal mixed human (Homo sapiens); experiment: pull-down; details: 5'-aminohexyl, immobilized on Sepharose, purified native protein, protein details: ChromPure, Jackson ImmunoResearch

CCTTCCTTTGGAAGGTTG [RAD23]: no binding ([1]; folded or branched DNA).

TGTGTGTGTGTGTGT [(TG)7T control]: binds more weakly ([2]; 5' aminohexyl, retention on DNA-Sepharose H2>C7>>TG repeat>blank, single-stranded DNA); binds more weakly ([3]; control, retention much lower than C7 and H2, single-stranded DNA).

TTTTCGCGCGTACGCGCGCGAA [RAD15]: no binding ([1]; single-stranded DNA).

TTTTCGCGCGTTAACGCGCGAA [RAD16]: no binding ([1]; single-stranded DNA).

TTTTCGCGCGTTTCCGCGCGAA [C7]: binds ([2]; 5' aminohexyl, retention on DNA-Sepharose H2>C7>>TG repeat>blank, folded or branched DNA).

TTTTGGTTGGGGTGGTTGG [H2]: binds ([2]; 5'-aminohexyl, H2>C7>>TG repeat, folded or branched DNA); binds ([3]; bead retention H2>C7>>TG repeat, 100 mM TEAA, 20 mM Mg2+, pH 7, folded or branched DNA).
